No constants are given. Whether binding was seen depends on the method and setting. Binding seen in cells or lysates may run through a third protein. Some results given as binding are weak or reduced against the parent protein; the word gives no strength. For some of these results: Sequences can lack the tags named with a protein.

The chains behind the UniProt entries cited, without tags or fusion partners.
UniProt Q99873: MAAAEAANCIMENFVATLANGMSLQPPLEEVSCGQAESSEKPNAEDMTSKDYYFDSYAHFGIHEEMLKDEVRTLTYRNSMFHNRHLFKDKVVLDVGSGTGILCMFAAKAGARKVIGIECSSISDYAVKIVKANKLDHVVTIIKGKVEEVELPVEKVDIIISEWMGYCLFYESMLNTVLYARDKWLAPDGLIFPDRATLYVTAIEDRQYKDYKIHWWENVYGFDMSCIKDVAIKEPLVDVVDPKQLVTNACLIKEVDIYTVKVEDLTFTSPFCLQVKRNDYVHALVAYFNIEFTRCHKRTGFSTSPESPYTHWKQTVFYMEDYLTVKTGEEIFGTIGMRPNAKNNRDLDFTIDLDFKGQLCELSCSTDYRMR
UniProt P52294: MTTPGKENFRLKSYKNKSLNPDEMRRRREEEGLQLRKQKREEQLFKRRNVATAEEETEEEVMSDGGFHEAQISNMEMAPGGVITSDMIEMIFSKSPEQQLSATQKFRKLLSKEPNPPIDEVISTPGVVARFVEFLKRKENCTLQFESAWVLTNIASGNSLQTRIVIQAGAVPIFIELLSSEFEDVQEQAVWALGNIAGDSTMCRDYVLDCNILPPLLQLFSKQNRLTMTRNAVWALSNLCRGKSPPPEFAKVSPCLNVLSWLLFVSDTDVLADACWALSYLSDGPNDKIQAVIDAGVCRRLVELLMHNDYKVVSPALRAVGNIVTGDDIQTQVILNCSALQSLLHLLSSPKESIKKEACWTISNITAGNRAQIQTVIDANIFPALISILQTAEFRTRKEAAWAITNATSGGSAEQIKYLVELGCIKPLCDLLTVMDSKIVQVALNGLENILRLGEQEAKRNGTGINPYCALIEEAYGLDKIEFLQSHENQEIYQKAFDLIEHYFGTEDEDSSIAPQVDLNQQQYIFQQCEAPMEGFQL

The text below walks through data of publication PMC12853711.

Test [1] addresses T1, SFPQ-N (1–371 amino acid residues), Flag-tagged (UniProt P23246).
T1 sequence: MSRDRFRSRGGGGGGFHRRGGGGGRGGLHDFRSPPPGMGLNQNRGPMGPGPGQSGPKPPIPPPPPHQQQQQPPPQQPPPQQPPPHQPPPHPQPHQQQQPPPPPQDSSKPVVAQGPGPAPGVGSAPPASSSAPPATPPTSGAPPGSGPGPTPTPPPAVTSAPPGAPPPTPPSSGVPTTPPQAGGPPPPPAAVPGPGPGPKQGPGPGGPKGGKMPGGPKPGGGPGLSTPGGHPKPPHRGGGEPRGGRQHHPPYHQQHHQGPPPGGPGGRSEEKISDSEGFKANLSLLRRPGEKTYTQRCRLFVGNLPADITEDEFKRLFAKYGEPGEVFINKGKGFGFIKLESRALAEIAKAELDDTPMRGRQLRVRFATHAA
As to the kind of experiment: co-IP; HA-tagged TRIM59 (full-length or truncated) with Flag-tagged SFPQ (full-length or truncated); cells not given; western blot.

Test [2] has as its target T2, full-length Flag-tagged SFPQ (UniProt P23246).
T2 sequence: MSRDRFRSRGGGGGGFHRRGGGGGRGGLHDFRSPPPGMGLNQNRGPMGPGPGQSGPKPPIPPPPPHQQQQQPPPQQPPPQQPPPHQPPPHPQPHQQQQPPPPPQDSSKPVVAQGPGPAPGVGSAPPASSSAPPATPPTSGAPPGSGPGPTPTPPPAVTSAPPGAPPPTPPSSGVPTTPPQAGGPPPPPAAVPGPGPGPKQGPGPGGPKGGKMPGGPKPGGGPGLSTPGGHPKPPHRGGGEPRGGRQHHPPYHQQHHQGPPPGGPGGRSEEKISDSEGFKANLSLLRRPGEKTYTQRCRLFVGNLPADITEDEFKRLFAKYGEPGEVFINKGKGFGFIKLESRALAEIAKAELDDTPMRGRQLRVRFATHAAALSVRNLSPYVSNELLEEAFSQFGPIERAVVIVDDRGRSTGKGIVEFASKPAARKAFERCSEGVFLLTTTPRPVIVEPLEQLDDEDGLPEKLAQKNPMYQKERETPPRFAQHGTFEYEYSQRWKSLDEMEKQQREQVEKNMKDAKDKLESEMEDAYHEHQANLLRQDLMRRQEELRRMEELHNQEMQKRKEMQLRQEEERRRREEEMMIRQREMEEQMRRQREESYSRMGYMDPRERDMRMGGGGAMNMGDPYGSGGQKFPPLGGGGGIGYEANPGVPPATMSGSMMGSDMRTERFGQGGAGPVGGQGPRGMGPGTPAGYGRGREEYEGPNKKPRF
The test is described as above.

Test [3] concerns the target PRMT1 (human (endogenous in SK-N-BE(2) and CHP-134)) (UniProt Q99873). As to the kind of experiment: co-IP; SK-N-BE(2) cell lysates (IP lysis buffer: 20 mM Tris-HCl pH 7.4, 150 mM NaCl, 0.5% Triton X-100, 0.5% deoxycholate, 1 mM DTT), protein A/G-agarose and indicated antibodies, 4 °C overnight, western blot; reciprocal IP for PRMT1; some panels with cells carrying shC or shTRIM59. (In general: In western blotting, separated proteins are transferred to a membrane and probed.)

The target in test [4] is importin α5 (human (endogenous in SK-N-BE(2))) (UniProt P52294). The test is described as above.

B1: full-length HA-tagged TRIM59 (protein, UniProt Q8IWR1 1-403)
chain: MHNFEEELTCPICYSIFEDPRVLPCSHTFCRNCLENILQASGNFYIWRPLRIPLKCPNCRSITEIAPTGIESLPVNFALRAIIEKYQQEDHPDIVTCPEHYRQPLNVYCLLDKKLVCGHCLTIGQHHGHPIDDLQSAYLKEKDTPQKLLEQLTDTHWTDLTHLIEKLKEQKSHSEKMIQGDKEAVLQYFKELNDTLEQKKKSFLTALCDVGNLINQEYTPQIERMKEIREQQLELMALTISLQEESPLKFLEKVDDVRQHVQILKQRPLPEVQPVEIYPRVSKILKEEWSRTEIGQIKNVLIPKMKISPKRMSCSWPGKDEKEVEFLKILNIVVVTLISVILMSILFFNQHIITFLSEITLIWFSEASLSVYQSLSNSLHKVKNILCHIFYLLKEFVWKIVSH
B1: the binding result in test [1] and in test [2] was “binds” throughout.

B2: TRIM59 (protein, UniProt Q8IWR1 1-403)
chain: B1 chain
On to B2, for which the binding entry in test [3] and in test [4] was “binds” in each case.
